Measurements from publication PMC10556770.
No constants are given. Whether binding was seen depends on the method and setting. In cells and extracts the contact can be indirect. Some binding calls cover weakened binding; strength is not graded here. Where a sequence is shown, tags or fusion partners need not be part of it.

Target: T1, FLAG-tagged Sentrin/SUMO-specific protease 1 (SENP1) (UniProt Q9P0U3)
T1 sequence: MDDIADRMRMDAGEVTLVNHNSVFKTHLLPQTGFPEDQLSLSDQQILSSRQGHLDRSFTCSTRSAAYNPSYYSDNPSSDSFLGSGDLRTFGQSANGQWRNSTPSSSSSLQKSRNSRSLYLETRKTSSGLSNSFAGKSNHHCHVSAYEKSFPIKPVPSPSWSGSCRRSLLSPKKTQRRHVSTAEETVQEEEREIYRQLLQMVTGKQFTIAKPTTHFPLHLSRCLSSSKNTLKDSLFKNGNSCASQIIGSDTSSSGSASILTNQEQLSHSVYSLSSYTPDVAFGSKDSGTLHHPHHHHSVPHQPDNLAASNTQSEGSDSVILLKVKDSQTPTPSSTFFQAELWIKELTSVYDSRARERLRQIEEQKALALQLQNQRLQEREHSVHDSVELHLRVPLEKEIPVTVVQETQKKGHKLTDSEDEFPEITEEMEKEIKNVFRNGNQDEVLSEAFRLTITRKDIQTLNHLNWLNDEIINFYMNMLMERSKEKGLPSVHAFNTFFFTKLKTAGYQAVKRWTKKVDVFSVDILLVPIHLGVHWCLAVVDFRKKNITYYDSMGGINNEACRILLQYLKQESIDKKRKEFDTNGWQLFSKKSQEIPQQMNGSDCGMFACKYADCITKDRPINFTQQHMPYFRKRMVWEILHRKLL
Test: co-IP; HEK-293T cells overexpressing HA-KEAP1-WT and FLAG-SENP1; IP with anti-FLAG, WB of KEAP1 and SENP1

For “HA-tagged KEAP1 (Kelch-like ECH-associated protein 1), WT (from UniProt Q14145 1-624)”, the binding was “binds”.
